Read-outs that look alike come from different tables or passages of the source.
How the values were obtained:
healthy elderly subjects [1] = conditions: human, in vivo
healthy adults [2] = assay: Experiment 2: Neurocognitive Function Change (NCFC) index; type: in vivo, human
healthy elderly subjects [3] = assay: Experiment 8: resting and task-related EEG and ERP in elderly; type: in vivo, human
healthy adults [4] = assay: Experiment 1: subjective sleepiness ratings (Karolinska Sleepiness Scale); type: in vivo, human; conditions: 50 mg diphenhydramine, 200-mg caffeine or 0.88 g/kg ethanol, four post-treatment intervals
Method: Each subject participated in […] sessions. The first session was a practice session in which subjects learned to perform the working memory tasks. After training, all subjects participated in 4 sessions, separated by at least one week. […] The four drug sessions were conducted according to a double blind, placebo-controlled, randomized, counterbalanced, crossover design. In each session, subjects consumed two pills (unmarked gelatin capsules) and a mixed drink. […] The pills were given with a 500 cc drink containing either 0.88 g/kg 95% ethanol mixed in fruit juice (adequate to produce an average peak blood alcohol content (BAC) of 0.08), or containing 495 cc of fruit juice with 5 cc of alcohol floated on top to mimic the smell and taste of the treatment drink.
(§1) Each drug session involved a baseline recording before drug administration. This was followed by four post-drug recording intervals, each lasting approximately 40 minutes. The first interval began 0.5 hrs after drug ingestion; the remaining three intervals occurred hourly thereafter. A scientist not otherwise involved in the experiment administered a Breathalyzer test at the beginning of each interval. Subjects also completed the Karolinska and Stanford sleepiness scales at each test period.

healthy adults [5] = system: healthy adults
Method: as §1
EEG was continuously recorded from 28 scalp electrodes using a digitally linked-mastoids reference. EOG was recorded from electrodes placed above and below one eye, and at the other canthi of each eye. Physiological signals were band-pass filtered at 0.01 to 100 Hz and sampled at 256 Hz. Automated artifact detection was followed by application of adaptive eye contaminant removal filters. The data were then visually inspected and data segments containing possible residual artifacts were eliminated from subsequent analyses. To examine the effects of the pharmacological interventions on individual EEG or behavioral variables, univariate repeated measures analyses of variance (ANOVAs) were used to compare data from each of the three treatment conditions with the placebo condition.
For neurophysiological features, average power was extracted from individual spectral bands at individual electrode sites, and then compared across test conditions. Decisions as to which parameters to extract from the spectra were based on the results of prior studies. For the task related EEG, past studies indicate that the frontal midline theta rhythm and the parietal alpha rhythm are sensitive to variations in the attentional demands of tasks, and, in particular, to the increase in difficulty in the working memory tasks employed here. For the EEG recorded under passive resting conditions, past studies indicate that activity in the delta and theta bands at posterior sites, and the alpha rhythm measured over the occipital region, are highly sensitive to variations in alertness and arousal. Each of the individual features was compared between placebo and each drug condition in univariate ANOVAs with repeated measures.

CN(C)CCOC(c1ccccc1)c1ccccc1 [diphenhydramine]
Subjects with negative index score at nadir (healthy elderly subjects [1]): 11 of the 12 | NCFC index change from pre-medication baseline (healthy adults [2]; 16 subjects, t1-t4): large drop in value | NCFC sub index most affected (healthy adults [2]; in vivo): largest impact on the Neurophysiological Alertness sub index | Memory-evoked shift (healthy elderly subjects [3]; 2.5 hrs after drug ingestion): significantly attenuated | Delay of early frontal positive deflection (P120) relative to placebo (healthy elderly subjects [3]; ITM task, average): 10 ms | Task-related EEG activity in delta, theta and alpha bands relative to placebo (healthy elderly subjects [3]; elderly): increased activity | Subjective sleepiness relative to placebo (healthy adults [4]): significant increase in subjective sleepiness relative to placebo at the 2.5-3 hr and 3.5-4 hr post-treatment intervals | Direction of significant (p < .05) change in spectral power (vs. placebo): Oz alpha (healthy adults [5]; Resting EEG Eyes Closed): ▾ | Direction of significant (p < .05) change in spectral power (vs. placebo): Pz delta (healthy adults [5]; Resting EEG Eyes Closed): ▴ | Direction of significant (p < .05) change in spectral power (vs. placebo): Pz theta (healthy adults [5]; Resting EEG Eyes Closed): ▬ | Direction of significant (p < .05) change in spectral power (vs. placebo): Oz alpha (healthy adults [5]; Resting EEG Eyes Open): ▬ | Direction of significant (p < .05) change in spectral power (vs. placebo): Pz delta (healthy adults [5]; Resting EEG Eyes Open): ▴ | Direction of significant (p < .05) change in spectral power (vs. placebo): Pz theta (healthy adults [5]; Resting EEG Eyes Open): ▬ | Direction of significant (p < .05) change in spectral power (vs. placebo): Pz alpha (healthy adults [5]; Task EEG High Load): ▬ | Direction of significant (p < .05) change in spectral power (vs. placebo): aFz theta (healthy adults [5]; Task EEG High Load): ▾ | Direction of significant (p < .05) change in spectral power (vs. placebo): Pz alpha (healthy adults [5]; Task EEG Low Load): ▬ | Direction of significant (p < .05) change in spectral power (vs. placebo): aFz theta (healthy adults [5]; Task EEG Low Load): ▬

Source: US6947790B2, “Neurocognitive function EEG measurement method and system” (priority 2000, dated 2005)
